We go through 41 compounds from PubChem BioAssay AID493014 (National Center for Advancing Translational Sciences (NCATS), 2011).

Structures are written as SMILES. The list shows a part of the results. The main result of the screen is listed elsewhere. These columns were measured beside it and carry no call. Compounds called inactive in the main read-out are mostly missing here. Words in brackets tell the shape of the fitted curve; partial curves, single points and poor fits give uncertain potencies.

This assay is described as follows: qHTS Assay to Find Inhibitors of Chronic Active B-Cell Receptor Signaling. The note with it: ABC-DLBCL IkBa-CBG/CBR reporter, luminescence ratio (green luciferase fused to IkBa over red control in TMD8 lymphoma cells), 4 h. Summed up:
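TMD8 human ABC-DLBCL cells with doxycycline-inducible IκBα–green luciferase fusion and unfused red luciferase, in 0.5% FBS medium; compounds up to 46 uM, 4 h at 37C. Green/red luminescence ratio, filter-overlap corrected, fitted to concentration-response curves.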
In general terms: In qHTS, concentration-response curves come from the screen itself.

[1] abbreviates: measured here: IkBa-CBG green luminescence.
Setting [2] is: measured here: CBR red luminescence, cell number.

Turning to `CCn1c(SCC(=O)Nc2cc(C)on2)nc2sc(C)c(C)c2c1=O`, under setting [1], the AC50 (as a rule, the midpoint of the concentration-response curve, whichever way the signal moves) is 29.1 µM [falling, single point]. Regarding `Cc1ccc(S(=O)(=O)c2c(N)n(CC3CCOC3)c3nc4ccccc4nc23)cc1` (stereo not drawn), the AC50 under setting [2] was 29.1 µM [falling, single point]. Same read-out and setting: in the case of `Cc1csc(NC(=O)CSc2nnc(CCNC(=O)c3cccs3)n2C)n1` it was 29.1 µM [falling, single point]; in that of `Cc1ccc(C(=O)Oc2cc(C)n(C)c(=O)c2)cc1`, 20 µM [falling, single point]. Same read-out and setting: to `Cc1c(C)n2c(SCC(=O)Nc3cccc4ccccc34)nnc2[nH]c1=O` belongs 4.61 µM [falling, partial curve]. Still for that read-out and setting: to `COc1ccc(CNCCC(c2ccc(OC(C)C)cc2)C(C)C)cc1OC` (stereo not drawn) belongs 10 µM [falling, partial curve, poor fit]; to `c1ccc(N2CCN(c3nc4cc5c(cc4s3)OCCO5)CC2)cc1`, 25.9 µM [rising, single point]; to `CCOc1ccc(NC(=O)C2CC(=O)N(c3cc(C)cc(C)c3)C2)cc1` (stereo not drawn), 29.1 µM [rising, single point]. On to `CCOC(=O)C1=C(C)N(C)C(C)=C(C(=O)OCC)C1c1ccc(Cl)cc1`, for which the AC50 under setting [2] is 29.1 µM [falling, single point]. The same measure, in the same setting: to `Cc1ccc(/C=N/n2c(-c3cccnc3)n[nH]c2=S)s1` belongs 16.4 µM [falling, single point]; to `CCOC(=O)c1c(C)[nH]c(C)c1C(=O)CSc1nnc(-c2ccco2)n1Cc1ccccc1`, 32.6 µM [falling, single point].

Take `COc1ccc([C@H]2CC(=O)C=C(c3ccc(OC)cc3OC)C2)cc1`: the AC50 runs as follows: under setting [2], 10.3 µM [rising, partial curve]; under setting [1], 14.6 µM [falling, partial curve]. Turning to `CCC(C(=O)OCC(=O)Nc1c(Cl)cccc1Cl)c1ccccc1` (stereo not drawn), the AC50 under setting [2] was 2.59 µM [rising, partial curve]. In the case of `Cc1ccc(C(CNC(=O)Nc2ccc(Cl)cc2)N2CCN(C)CC2)cc1` (stereo not drawn), the AC50 under setting [2] is 0.158 µM [rising, full curve, poor fit]. Same read-out and setting: in the case of `CCCOc1ccc(NCC(=O)Nc2ccc(C)cc2C)cc1` it was 4.11 µM [falling, partial curve, poor fit]; in that of `CCOc1ccc(C(=O)Nc2cc(C)on2)cc1OCC`, 29.1 µM [rising, single point]; in that of `CCCSc1nc2c(c(=O)[nH]c(=O)n2C)n1Cc1ccc(C)cc1`, 35.5 µM [rising, single point]. Same read-out and setting: to `CCSc1nccc(-c2nn(-c3ccc(C)cc3)ccc2=O)n1` belongs 29.1 µM [rising, single point]; to `N#C/C(=C(/O)c1ccc([N+](=O)[O-])cc1)c1nc2ccccc2[nH]1`, 1.41 µM [falling, full curve, poor fit]. In the case of `CCOc1ccc2nc(N3C(=O)/C(=C/c4ccccc4)NC3=S)sc2c1`, the AC50 under setting [2] was 8.2 µM [rising, partial curve, poor fit] and the AC50 under setting [1] was 16.4 µM [falling, partial curve, poor fit]. As to `Clc1ccc2scc(CN3CCCCC3)c2c1`, under setting [2], the AC50 is 0.82 µM [rising, full curve]. Same read-out and setting: in the case of `Cc1cccc(OCC(=O)N(Cc2ccc(F)cc2)C2CCS(=O)(=O)C2)c1C` (stereo not drawn) it was 11.2 µM [falling, partial curve]; in that of `Nc1nc(Nc2cccc(C(F)(F)F)c2)nc(C(F)(F)F)n1`, 2.51 µM [rising, full curve]. Still for that read-out and setting: in the case of `Cc1cc(=O)oc2cc(OCC(=O)N3CCN(c4ccccc4)CC3)ccc12` it was 29.1 µM [rising, single point]. For the compound `CC(=O)Nc1ccc(C(=O)Nc2ccc3c(c2)N(C2CCCC2)C(=O)c2ccccc2S3)cc1`, the AC50 under setting [1] is 12.6 µM [rising, partial curve, poor fit]. Turning to `COC(=O)c1sccc1NC(=O)CSc1cccc(Cl)c1Cl`, under setting [2], the AC50 is 6.31 µM [falling, partial curve, poor fit]. On the same count and under the same terms, to `CC(/C=N/Nc1nc(C)cc(C)n1)=C\c1ccc(C(C)C)cc1` belongs 2.06 µM [rising, partial curve, poor fit]; to `Cc1ccccc1Nc1nc(N)nc(COC(=O)CCS(=O)(=O)c2ccccc2)n1`, 15.8 µM [falling, single point]. The same measure, in the same setting: in the case of `Cc1ccc(OCC(=O)OCC(=O)c2c(N)n(C)c(=O)n(C)c2=O)cc1C` it was 0.58 µM [falling, partial curve, poor fit]; in that of `COc1cccc(NC(=O)CSc2nc3c(sc4ccccc43)c(=O)n2CCCN2CCCC2)c1`, 22.4 µM [falling, single point]. With `O=C(COC(=O)c1cncc(Br)c1)Nc1nc(-c2ccc(F)cc2)cs1`, under setting [2], the AC50 is 1.12 µM [falling, full curve]. On to `Cc1ccc2nc(NC(=O)c3ccc4c(c3)OCO4)sc2c1`, for which the AC50 under setting [2] is 1.41 µM [falling, full curve]. Still for that read-out and setting: in the case of `CCCNc1c(NS(=O)(=O)c2cccs2)c(=O)oc2ccccc12` it was 17.8 µM [falling, partial curve, poor fit]; in that of `COc1cc(Cl)ccc1OCc1cc(C(=O)NC(C)Cc2cccnc2)no1` (stereo not drawn), 35.5 µM [falling, single point]. The same measure, in the same setting: in the case of `COc1ccc(C(=O)CN2CCN(c3ccc(F)cc3)CC2)cc1OC` it was 11.2 µM [falling, single point]; in that of `COc1cc(/C=N\NC(=O)c2ccc(-c3ccccc3)cc2)cc(OC)c1OC(C)=O`, 12.6 µM [falling, partial curve, poor fit]; in that of `CCOC(=O)Cc1csc(NC(=O)Nc2ccccc2)n1`, 6.51 µM [falling, partial curve, poor fit].

For `Cc1nn(Cc2ccccc2)c(N)c1C#N`, under setting [2], the AC50 was 11.2 µM [falling, partial curve, poor fit]. Take `CN(C)CCNC(=O)/C(=C/c1ccc(-c2cccc([N+](=O)[O-])c2)o1)NC(=O)c1ccccc1`: the AC50 under setting [2] is 29.1 µM [falling, single point]. On the same count and under the same terms, to `NNc1nc2ccc(Cl)cc2s1` belongs 1.3 µM [falling, full curve]; to `O=c1cc2c(nn1Cc1ccc(F)cc1)-c1ccccc1CC2`, 39.8 µM [falling, partial curve, poor fit].
